No constants are given. Whether binding was seen depends on the method and setting. In cells and extracts the contact can be indirect. Here binding means that the protein was enriched with, or labelled near, the bait; the list need not be complete.
Assays:
[1] = target: 3xFLAG.TAZ (flagged mouse Taz, WW-domain-containing transcription regulator 1) (mouse) (UniProt Q9EPK5); assay: affinity purification with mass spectrometry
[2] = target: 3xFLAG.YAP (flagged mouse Yap, Yes-associated protein) (mouse) (UniProt P46938); assay: affinity purification with mass spectrometry

Sequences of proteins named here, by UniProt entry; tags and fusion partners are left off. A change or cut given only in a name is not applied to a line headed by its entry. A line that says so, or that is headed by a name, gives the form on record, which may keep a tag or linker.
UniProt Q9EPK5: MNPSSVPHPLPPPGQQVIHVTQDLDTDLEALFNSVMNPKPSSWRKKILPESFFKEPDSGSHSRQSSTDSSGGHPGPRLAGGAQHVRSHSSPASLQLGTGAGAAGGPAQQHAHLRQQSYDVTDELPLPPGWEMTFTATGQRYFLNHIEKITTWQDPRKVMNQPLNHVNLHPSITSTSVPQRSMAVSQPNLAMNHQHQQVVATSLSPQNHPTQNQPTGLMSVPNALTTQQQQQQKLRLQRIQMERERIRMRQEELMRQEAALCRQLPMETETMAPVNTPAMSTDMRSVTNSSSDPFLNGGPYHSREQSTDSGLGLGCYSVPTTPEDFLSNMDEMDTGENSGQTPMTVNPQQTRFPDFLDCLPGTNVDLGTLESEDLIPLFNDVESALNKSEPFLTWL
UniProt P46938: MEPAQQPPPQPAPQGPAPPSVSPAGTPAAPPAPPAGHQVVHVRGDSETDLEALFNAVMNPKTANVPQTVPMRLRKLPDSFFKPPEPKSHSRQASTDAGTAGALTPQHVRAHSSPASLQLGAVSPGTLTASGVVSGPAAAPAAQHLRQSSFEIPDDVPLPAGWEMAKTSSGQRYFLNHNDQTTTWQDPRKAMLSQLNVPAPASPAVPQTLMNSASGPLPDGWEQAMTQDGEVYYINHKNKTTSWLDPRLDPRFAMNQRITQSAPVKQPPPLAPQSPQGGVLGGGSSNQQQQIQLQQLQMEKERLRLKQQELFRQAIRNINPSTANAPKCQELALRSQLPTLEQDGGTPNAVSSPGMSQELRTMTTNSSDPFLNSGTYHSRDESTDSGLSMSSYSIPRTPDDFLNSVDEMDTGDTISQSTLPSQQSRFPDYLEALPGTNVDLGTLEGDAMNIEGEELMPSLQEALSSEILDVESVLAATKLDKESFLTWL
UniProt Q9EPL8: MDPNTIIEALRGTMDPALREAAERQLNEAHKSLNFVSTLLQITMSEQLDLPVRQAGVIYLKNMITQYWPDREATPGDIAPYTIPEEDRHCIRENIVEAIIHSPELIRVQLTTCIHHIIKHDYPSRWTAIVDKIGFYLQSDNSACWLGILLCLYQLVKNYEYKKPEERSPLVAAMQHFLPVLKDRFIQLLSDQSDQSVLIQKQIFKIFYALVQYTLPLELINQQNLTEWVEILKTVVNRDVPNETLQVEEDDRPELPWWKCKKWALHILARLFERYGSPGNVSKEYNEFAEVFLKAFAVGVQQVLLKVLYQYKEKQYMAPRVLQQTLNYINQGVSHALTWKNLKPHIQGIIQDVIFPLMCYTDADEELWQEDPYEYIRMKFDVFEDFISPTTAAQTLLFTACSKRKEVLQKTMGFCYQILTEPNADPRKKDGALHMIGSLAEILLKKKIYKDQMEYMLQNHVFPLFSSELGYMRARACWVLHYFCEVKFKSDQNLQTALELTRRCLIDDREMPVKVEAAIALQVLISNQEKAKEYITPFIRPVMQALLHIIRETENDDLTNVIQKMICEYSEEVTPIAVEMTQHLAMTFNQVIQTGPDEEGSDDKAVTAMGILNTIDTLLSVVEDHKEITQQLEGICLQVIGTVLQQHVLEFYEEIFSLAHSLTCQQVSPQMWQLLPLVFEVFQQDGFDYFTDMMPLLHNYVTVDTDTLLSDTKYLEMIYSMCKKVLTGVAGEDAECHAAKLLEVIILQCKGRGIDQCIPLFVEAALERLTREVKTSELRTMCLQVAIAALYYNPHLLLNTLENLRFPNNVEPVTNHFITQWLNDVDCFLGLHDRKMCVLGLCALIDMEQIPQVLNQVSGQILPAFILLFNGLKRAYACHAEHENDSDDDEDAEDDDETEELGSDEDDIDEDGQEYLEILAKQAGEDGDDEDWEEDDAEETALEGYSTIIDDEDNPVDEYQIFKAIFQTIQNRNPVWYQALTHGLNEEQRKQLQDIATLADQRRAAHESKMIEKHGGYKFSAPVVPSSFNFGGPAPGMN
Nup205 (nuclear pore protein NUP205) (B9EJ54, form named): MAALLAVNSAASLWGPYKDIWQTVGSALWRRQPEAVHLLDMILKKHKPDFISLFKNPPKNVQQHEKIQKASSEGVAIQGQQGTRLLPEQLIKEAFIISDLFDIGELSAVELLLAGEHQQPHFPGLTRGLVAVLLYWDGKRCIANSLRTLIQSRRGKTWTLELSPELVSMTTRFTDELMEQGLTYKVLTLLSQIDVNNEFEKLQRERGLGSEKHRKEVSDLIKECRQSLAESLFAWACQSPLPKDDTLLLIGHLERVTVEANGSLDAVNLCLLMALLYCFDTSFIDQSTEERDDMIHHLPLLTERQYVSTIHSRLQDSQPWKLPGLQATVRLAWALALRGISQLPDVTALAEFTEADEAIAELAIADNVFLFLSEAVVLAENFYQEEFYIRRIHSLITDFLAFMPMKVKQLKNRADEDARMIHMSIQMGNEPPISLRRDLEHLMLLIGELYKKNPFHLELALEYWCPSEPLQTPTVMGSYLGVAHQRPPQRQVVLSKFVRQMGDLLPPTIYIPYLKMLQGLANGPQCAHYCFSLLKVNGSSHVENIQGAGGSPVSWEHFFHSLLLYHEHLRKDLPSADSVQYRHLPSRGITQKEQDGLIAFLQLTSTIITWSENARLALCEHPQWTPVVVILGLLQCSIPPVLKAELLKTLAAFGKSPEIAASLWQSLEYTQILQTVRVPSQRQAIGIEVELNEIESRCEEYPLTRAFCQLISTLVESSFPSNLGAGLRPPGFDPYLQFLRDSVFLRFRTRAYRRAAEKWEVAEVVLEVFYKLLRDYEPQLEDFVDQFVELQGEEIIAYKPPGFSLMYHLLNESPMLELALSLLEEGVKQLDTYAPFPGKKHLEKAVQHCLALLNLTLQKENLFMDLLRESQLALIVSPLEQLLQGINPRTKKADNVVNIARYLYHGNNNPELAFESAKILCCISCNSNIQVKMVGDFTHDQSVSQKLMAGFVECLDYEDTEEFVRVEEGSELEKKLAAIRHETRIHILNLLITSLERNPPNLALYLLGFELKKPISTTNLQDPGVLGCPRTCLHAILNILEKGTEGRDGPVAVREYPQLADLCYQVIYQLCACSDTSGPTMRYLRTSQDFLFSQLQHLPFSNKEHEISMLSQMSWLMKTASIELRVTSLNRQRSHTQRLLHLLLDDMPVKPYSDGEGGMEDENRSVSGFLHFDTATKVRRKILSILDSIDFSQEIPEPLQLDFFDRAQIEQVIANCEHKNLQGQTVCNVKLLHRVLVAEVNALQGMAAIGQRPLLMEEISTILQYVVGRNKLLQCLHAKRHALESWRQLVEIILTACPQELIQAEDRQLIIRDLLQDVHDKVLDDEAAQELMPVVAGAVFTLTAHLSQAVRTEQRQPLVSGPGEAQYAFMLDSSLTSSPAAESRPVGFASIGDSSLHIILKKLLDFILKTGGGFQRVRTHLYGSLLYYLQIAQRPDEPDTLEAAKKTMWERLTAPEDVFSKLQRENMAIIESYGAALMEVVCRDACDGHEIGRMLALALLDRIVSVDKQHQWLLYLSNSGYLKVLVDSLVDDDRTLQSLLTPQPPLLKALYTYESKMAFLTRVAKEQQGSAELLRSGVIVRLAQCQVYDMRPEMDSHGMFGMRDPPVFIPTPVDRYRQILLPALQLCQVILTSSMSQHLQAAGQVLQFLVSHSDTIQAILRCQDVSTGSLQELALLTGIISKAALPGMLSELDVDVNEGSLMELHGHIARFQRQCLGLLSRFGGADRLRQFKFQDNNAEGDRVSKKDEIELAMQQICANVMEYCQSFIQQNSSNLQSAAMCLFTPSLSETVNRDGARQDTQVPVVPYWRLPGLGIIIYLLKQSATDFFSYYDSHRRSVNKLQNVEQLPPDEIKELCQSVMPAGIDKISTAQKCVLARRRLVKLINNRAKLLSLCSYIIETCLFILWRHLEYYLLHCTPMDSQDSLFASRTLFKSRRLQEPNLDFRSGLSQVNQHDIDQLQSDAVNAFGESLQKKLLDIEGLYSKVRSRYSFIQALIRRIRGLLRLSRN

Substance | binding [1] | binding [2]
Ipo7 (from UniProt Q9EPL8 1-1038) | binds | –
Nup205 (nuclear pore protein NUP205) (from UniProt B9EJ54 1-2008) | binds | binds

Reference: article doi:10.1101/2023.03.07.531564
